Drawing on PMC8996536, this text covers binding for one substance.

Protein sequences, listed by entry. Tags and fused reporters are not part of them.
UniProt P67809: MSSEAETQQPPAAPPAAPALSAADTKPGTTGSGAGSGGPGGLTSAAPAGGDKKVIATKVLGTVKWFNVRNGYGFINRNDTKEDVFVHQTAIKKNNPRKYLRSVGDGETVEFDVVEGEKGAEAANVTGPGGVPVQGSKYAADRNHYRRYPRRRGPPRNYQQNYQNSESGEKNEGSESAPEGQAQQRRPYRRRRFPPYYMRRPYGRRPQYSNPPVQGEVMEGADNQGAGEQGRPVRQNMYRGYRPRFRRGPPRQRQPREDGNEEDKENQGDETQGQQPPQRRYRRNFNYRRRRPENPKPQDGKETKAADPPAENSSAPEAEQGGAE

No constants are given. Whether binding was seen depends on the method and setting. In cells and extracts the contact can be indirect. Some binding calls cover weakened binding; strength is not graded here.

The target in the experiment is T1, SET domain containing 3 (human (endogenous in A549)) (UniProt Q86TU7).
T1 sequence: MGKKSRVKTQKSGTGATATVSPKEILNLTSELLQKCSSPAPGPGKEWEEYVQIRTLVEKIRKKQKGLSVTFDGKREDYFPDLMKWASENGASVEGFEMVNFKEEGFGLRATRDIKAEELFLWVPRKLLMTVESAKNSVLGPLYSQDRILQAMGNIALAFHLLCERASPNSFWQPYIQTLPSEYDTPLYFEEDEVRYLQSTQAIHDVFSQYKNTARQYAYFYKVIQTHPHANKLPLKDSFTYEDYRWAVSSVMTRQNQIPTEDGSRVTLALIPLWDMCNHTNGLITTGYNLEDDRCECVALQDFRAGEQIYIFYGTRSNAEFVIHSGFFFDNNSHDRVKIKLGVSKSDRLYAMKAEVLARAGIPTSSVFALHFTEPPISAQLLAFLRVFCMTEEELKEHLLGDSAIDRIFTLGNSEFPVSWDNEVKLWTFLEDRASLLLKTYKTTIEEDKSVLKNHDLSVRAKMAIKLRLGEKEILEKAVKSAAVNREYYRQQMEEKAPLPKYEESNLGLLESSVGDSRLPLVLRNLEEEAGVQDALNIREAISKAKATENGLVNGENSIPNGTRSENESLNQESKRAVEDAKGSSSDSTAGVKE
Description: co-IP; cell lysates incubated with Dynabeads Protein G conjugated with SETD3 antibody at 4 °C overnight; washed four times with lysis buffer; SDS-PAGE and western blot; in the presence of wild-type or K264A mutant YBX1. A general note: In western blotting, separated proteins are transferred to a membrane and probed.

“wild-type YBX1 protein (from UniProt P67809 1-324)”: the binding entry is on record as “binds”.
